Results are given in words; binding and its absence hold for the method and conditions named. Binding seen in cells or lysates may run through a third protein. Some binding calls cover weakened binding; strength is not graded here. For some assays here: Where a sequence is shown, tags or fusion partners need not be part of it.
T1: PCNA (S. pombe Pcn1) (S. pombe (endogenous in S. pombe cells)) (UniProt Q03392)
T1 sequence: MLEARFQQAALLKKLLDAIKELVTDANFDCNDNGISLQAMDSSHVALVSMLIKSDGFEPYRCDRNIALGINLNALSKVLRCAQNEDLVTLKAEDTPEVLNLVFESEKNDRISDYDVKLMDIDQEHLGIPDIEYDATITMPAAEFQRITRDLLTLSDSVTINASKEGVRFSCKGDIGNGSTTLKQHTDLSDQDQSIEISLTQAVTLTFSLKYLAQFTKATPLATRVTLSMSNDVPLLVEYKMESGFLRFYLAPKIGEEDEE

The chains behind the UniProt entries cited, without tags or fusion partners.
UniProt P87154: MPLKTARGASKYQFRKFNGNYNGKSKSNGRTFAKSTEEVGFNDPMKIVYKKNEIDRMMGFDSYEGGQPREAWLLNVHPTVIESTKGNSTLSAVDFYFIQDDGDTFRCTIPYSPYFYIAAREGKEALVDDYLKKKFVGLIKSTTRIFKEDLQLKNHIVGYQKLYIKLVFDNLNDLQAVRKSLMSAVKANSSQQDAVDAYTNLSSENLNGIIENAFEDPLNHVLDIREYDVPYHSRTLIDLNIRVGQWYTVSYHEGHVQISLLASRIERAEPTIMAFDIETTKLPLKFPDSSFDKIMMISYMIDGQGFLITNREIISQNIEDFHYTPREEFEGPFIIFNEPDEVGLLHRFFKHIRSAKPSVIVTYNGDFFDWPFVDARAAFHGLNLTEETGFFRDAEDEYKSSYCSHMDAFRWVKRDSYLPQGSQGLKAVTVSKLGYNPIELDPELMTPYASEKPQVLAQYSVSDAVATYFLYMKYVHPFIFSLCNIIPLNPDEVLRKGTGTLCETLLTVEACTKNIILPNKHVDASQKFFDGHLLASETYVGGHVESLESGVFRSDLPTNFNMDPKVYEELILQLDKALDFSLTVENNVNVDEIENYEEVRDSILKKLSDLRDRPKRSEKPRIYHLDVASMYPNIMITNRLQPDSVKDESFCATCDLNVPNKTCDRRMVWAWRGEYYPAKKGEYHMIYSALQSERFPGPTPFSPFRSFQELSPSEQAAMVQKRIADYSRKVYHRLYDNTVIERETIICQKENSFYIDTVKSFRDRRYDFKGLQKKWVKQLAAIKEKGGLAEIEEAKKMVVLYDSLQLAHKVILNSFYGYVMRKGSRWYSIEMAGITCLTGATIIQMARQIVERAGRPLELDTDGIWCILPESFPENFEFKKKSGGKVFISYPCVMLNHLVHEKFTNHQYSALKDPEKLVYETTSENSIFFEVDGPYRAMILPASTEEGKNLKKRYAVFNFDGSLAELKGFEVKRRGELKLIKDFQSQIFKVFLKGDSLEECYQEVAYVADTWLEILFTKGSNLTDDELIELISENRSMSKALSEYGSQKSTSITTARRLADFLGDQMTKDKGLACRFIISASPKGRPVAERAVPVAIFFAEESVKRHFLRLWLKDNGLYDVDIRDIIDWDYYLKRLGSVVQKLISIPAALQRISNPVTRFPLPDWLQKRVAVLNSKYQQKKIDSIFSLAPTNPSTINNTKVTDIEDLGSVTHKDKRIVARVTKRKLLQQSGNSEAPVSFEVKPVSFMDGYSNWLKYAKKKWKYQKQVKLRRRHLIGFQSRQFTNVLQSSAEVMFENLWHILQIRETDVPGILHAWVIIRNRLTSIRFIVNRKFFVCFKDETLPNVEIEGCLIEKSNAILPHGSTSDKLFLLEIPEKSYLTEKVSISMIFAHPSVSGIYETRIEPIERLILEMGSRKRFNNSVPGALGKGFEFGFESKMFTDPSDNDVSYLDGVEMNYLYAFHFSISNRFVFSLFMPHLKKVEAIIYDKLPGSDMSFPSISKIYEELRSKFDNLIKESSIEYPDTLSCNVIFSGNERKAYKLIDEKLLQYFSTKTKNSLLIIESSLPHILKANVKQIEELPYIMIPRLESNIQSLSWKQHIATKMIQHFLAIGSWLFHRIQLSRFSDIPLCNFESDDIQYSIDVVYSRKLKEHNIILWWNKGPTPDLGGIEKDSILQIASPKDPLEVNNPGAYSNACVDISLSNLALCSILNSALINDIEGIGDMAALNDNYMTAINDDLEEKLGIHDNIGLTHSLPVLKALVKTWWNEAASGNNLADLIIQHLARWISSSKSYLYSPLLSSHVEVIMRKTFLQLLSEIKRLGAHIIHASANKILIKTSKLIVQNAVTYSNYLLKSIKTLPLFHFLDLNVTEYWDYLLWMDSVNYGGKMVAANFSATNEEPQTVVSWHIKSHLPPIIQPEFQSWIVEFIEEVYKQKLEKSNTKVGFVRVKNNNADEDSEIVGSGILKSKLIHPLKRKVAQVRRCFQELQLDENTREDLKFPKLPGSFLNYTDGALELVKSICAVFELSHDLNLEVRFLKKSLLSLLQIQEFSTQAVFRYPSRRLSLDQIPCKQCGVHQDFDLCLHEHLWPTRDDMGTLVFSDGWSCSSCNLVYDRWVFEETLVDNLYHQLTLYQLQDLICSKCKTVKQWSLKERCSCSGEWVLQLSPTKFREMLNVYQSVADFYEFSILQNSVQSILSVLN


How the values were obtained:
[1] = molecular target: T1, PCNA (S. pombe Pcn1) (S. pombe (endogenous in S. pombe cells)); assay: co-IP; cells treated with 1% formaldehyde, lysed in RIPA buffer, sonicated, benzonase; immunoprecipitation with anti-PCNA, blot with anti-GFP (tagged polymerase); cells with or without hydroxyurea; rad18Δ, rad18+, Purg1-rad18, ubc13Δ, pcn1-K164R, elg1Δ backgrounds
[2] = molecular target: Polε-GFP (catalytic subunit of Polε, Cdc20, GFP tagged) (S. pombe) (UniProt P87154); assay: co-IP; cells treated with 1% formaldehyde, lysed in RIPA buffer, sonicated, benzonase; immunoprecipitation with anti-GFP (tagged polymerase), blot with anti-PCNA; cells with or without hydroxyurea; rad18Δ, rad18+ and Purg1-rad18 cells

Row | binding [1] | binding [2] | Binder
1 | binds weakly | – | Polη, GFP-tagged (S. pombe) (protein, UniProt O42917 1-872) MELGKSKFSWKDLQYCDKAGTQNSPLRVVAHIDQDAFYAQVESVRLGLDHSVPLAVQQWQGLIAVNYAARAANISRHETVTEAKKKCPELCTAHVKTWKAGESEAKYHENPNPNYYKTCLDPYRHESVKILNIIKKHAPVVKKASIDECFIELTSDVKRIVLEEYPYLKIPSEDSNVALPQAPVLLWPAEFGMVIEEEVVDRTKEDYERDWDDVFLFYAAKIVKEIRDDIYLQLKYTCSAGVSFNPMLSKLVSSRNKPNKQTILTKNAIQDYLVSLKITDIRMLGGKFGEEIINLLGTDSIKDVWNMSMDFLIDKLGQTNGPLVWNLCHGIDNTEITTQVQIKSMLSAKNFSQQKVKSEEDAINWFQVFASDLRSRFLELEGMRRPKTICLTVVSRFLRKSRSSQIPMNVDISTQFIVEATSKLLRQLQQEFDVYPISNLSISFQNIIEVDRNSRGIEGFLKKSNDEIYMSTSVSPSIEGRAKLLNENMRENNSFELSSEKDIKSPKRLKRGKGKGIFDMLQQTAVSKPTENSADETYTCEECEQKITLSERNEHEDYHIALSISRKERYNNLVPPSHDKPKQVKPKTYGRKTGSKHYAPLSDETNNKRAFLDAFLGNGGNLTPNWKKQTPKAISNSSDNMTQLHLDLANSTVTCSECSMEYNSTSEEDILLHSRFHSRVLGGVTVSFQCSPIYRVNYGLSSDCIYSINSESSLIDQRKAEEALSFVNNELSSEPIETIGVDKYTTFLFISDKKCVGLLLAERISSAYIVDELELNNNNSTSSAVYIKNENLRKGFVLGISRIWVSASRRKQGIASLLLDNALKKFIYGYVISPAEVAFSQPSESGKQFIISWHRSRNNGSSKSLRYAVYES
2 | – | no binding | PCNA (S. pombe Pcn1) (protein, UniProt Q03392 1-260) MLEARFQQAALLKKLLDAIKELVTDANFDCNDNGISLQAMDSSHVALVSMLIKSDGFEPYRCDRNIALGINLNALSKVLRCAQNEDLVTLKAEDTPEVLNLVFESEKNDRISDYDVKLMDIDQEHLGIPDIEYDATITMPAAEFQRITRDLLTLSDSVTINASKEGVRFSCKGDIGNGSTTLKQHTDLSDQDQSIEISLTQAVTLTFSLKYLAQFTKATPLATRVTLSMSNDVPLLVEYKMESGFLRFYLAPKIGEEDEE

Reference: publication PMC5440044
